Results taken from PubChem BioAssay AID651640 (Broad Institute, 2012).
Hit rate of the full screen: of about 350,000 compounds, about 6,000 (1.7%) were called active. The inconclusive results got no clear call from the source; some entries with a clear call stand among them for comparison. No stated cut-off is given here; in the data, active means CPE inhibition above about 20% (passing the limit was not always enough); inconclusive means no clear call, values can overlap the other calls; tested in BHK-21 cells.

Assay: protection of cells from dengue 2 killing – plate reader, single concentration, primary screen (AID 651640);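 further: 0% = median of neutral control wells and 100% = median of positive control wells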
Conditions: DENV2-infected cells, cytopathic effect rescue, at 9.99 µM, stronger effect = higher value
For `CCOc1ccc(S(=O)(=O)NCCC(=O)N2CCN(c3ccccc3O)CC2)cc1`, the CPE inhibition was inconclusive: 20.9%. In the case of `C[C@@H]1CCCCO[C@@H](CN(C)Cc2ccc(C(=O)O)cc2)[C@@H](C)CN([C@H](C)CO)C(=O)c2cc(NC(=O)CCC(F)(F)F)ccc2O1`, the CPE inhibition was inconclusive: 24.2%. For `CC1Cc2nc(SCC(=O)Nc3nc4ccccc4s3)n(C)c(=O)c2S1` (stereo not drawn), the CPE inhibition was inconclusive: 25%. With `CCOc1ccc(N2C(=O)C3C(c4ccc(O)cc4)NC(CCSC)(C(=O)OC)C3C2=O)cc1` (stereo not drawn) the CPE inhibition was inactive: -3.21%. With `COc1cccc(-c2ccc([C@@H]3[C@@H](CO)N4C(=O)CN(C(=O)NC(C)C)C[C@@H]34)cc2)c1` the CPE inhibition was inactive: 6.4%. In the case of `COc1cccc(-c2ccc([C@@H]3[C@H](CO)N4CCCCN(C(=O)c5ccc(F)cc5)C[C@@H]34)cc2)c1`, the CPE inhibition was active: 41.1%. With `O=C(/C=C/c1ccccc1[N+](=O)[O-])NNC(=O)c1ccncc1` the CPE inhibition was inconclusive: 40.8%. With `c1ccc(CCNc2nc(-c3ccccn3)nc3ccccc23)cc1` the CPE inhibition was inactive: -14.8%. With `COc1ccc(CN(C)C[C@H]2Oc3ccc(NC(=O)C4CC4)cc3CC(=O)N([C@H](C)CO)C[C@@H]2C)cc1` the CPE inhibition was active: 79.2%. In the case of `O=C(NCCCC1CCCC1)C1CCC(=O)N(Cc2cccc(C(F)(F)F)c2)C1` (stereo not drawn), the CPE inhibition was active: 26.1%. With `CCC(=O)N1[C@@H]2Cn3c(cccc3=O)[C@H]1[C@@H](C(=O)NCc1ccccc1)[C@@H]2CO` the CPE inhibition was inconclusive: 53.7%. For `COc1cc2cnc(-c3ccccc3)c(C(=O)c3ccc(OCc4ccccc4)cc3)c2cc1OC`, the CPE inhibition was inconclusive: 76.8%. For `COc1ccc(CCNC(=O)CN(c2ccccc2OC)S(=O)(=O)c2ccc(C)cc2)cc1`, the CPE inhibition was inconclusive: 53.2%. With `C[C@@H]1CN([C@@H](C)CO)C(=O)c2cc(C#CC(C)(C)O)cnc2O[C@@H]1CN(C)Cc1cncnc1` the CPE inhibition was active: 22.7%. With `C[C@H](NC(=O)[C@@H]1N[C@@H]2c3ccc(C4=CCCCC4)c(=O)n3C[C@@H]2[C@H]1CO)c1ccccc1` the CPE inhibition was inconclusive: 47.3%. In the case of `CCOc1ncccc1C(=O)NC(C)CCc1ccccc1` (stereo not drawn), the CPE inhibition was inactive: 5.74%. In the case of `CN1C(=O)c2cc(NS(=O)(=O)c3ccc(F)cc3)ccc2OC[C@@H]2O[C@@H](CC(=O)NCC(F)(F)F)CC[C@H]21`, the CPE inhibition was inconclusive: 44.3%. In the case of `CCCCn1c(N)c(N(CCOC)C(=O)c2ccc(N3CCCC3)c([N+](=O)[O-])c2)c(=O)[nH]c1=O`, the CPE inhibition was inconclusive: 21.7%. In the case of `Cc1ccc(S(=O)(=O)N(CC(=O)Nc2ccccc2C(=O)O)c2cccc(Cl)c2C)cc1`, the CPE inhibition was inactive: -3.43%. For `COc1ccc(O)c(/C=N/NC(=S)NCCc2ccccc2)c1`, the CPE inhibition was inconclusive: 25.2%. For `COCC(=O)N1[C@H](C#N)[C@@H](c2ccccc2C2=CCCCC2)[C@H]1CO`, the CPE inhibition was inconclusive: 38.3%. For `C[C@@H]1CN([C@@H](C)CO)C(=O)c2cccc(NS(=O)(=O)c3ccccc3)c2O[C@@H]1CN(C)S(=O)(=O)c1ccc(F)cc1`, the CPE inhibition was inconclusive: 58.2%. In the case of `NC1(C(=O)O)CSSC1`, the CPE inhibition was inconclusive: 31.3%. In the case of `C[C@H]1CN([C@@H](C)CO)C(=O)Cc2cc(NC(=O)C3CC3)ccc2O[C@@H]1CN(C)S(=O)(=O)c1ccc(Cl)cc1`, the CPE inhibition was inconclusive: 29%. For `CC12CCC3c4ccc(OCCCO)c([N+](=O)[O-])c4CCC3C1CCC2=O` (stereo not drawn), the CPE inhibition was active: 43.4%. With `COc1ccc(-c2cnc3c(c2)C(=O)N([C@H](C)CO)C[C@@H](C)[C@@H](CN(C)Cc2cccnc2)O3)cc1` the CPE inhibition was inconclusive: 29.6%. In the case of `Cc1noc(C)c1S(=O)(=O)Nc1ccc2c(c1)C(=O)N([C@H](C)CO)C[C@H](C)[C@H](CN(C)Cc1ccccc1)O2`, the CPE inhibition was active: 21.2%. With `CC[N+](CC)(CC#Cc1ccccc1)CC#Cc1ccccc1` the CPE inhibition was inactive: -7.49%. For `COc1ccc(CCNc2oc(COc3ccc(Br)cc3)nc2C#N)cc1OC`, the CPE inhibition was inconclusive: 46.4%. For `C=CCn1c(SCC(=O)NCC2CCCO2)nnc1-c1ccccc1` (stereo not drawn), the CPE inhibition was inconclusive: 24.3%. With `Cc1noc(C)c1S(=O)(=O)Nc1ccc2c(c1)C(=O)N([C@@H](C)CO)C[C@@H](C)[C@@H](CN(C)S(=O)(=O)c1cccs1)OCCCC[C@@H](C)O2` the CPE inhibition was inconclusive: 40.8%. In the case of `c1ccc(CNc2nc(-c3ccccc3)nc3ccccc23)cc1`, the CPE inhibition was inactive: -12.7%. With `CCC(=O)c1ccc2c(c1)N(CCCN(C)C)c1ccccc1S2` the CPE inhibition was inconclusive: 49.4%. In the case of `CCCN1C[C@H](C)[C@H](OC)CN(C)C(=O)c2ccc(NC(=O)C3CCOCC3)cc2OC[C@H]1C`, the CPE inhibition was inactive: 8.81%. For `COc1cccc(CNC(=O)CCC2CCCN(C(=O)C3=CC(=O)CC(C)(C)O3)C2)c1` (stereo not drawn), the CPE inhibition was inactive: -3.8%. For `CNC(=S)N/N=C/c1cccc(OCc2ccccc2F)c1`, the CPE inhibition was inconclusive: 69.6%. With `O=C(Nc1ccc(-c2nc3cccnc3s2)cc1)c1ccc(Cl)nc1` the CPE inhibition was inconclusive: 21%. With `CCC(=O)Nc1ccc2c(c1)C(=O)N(C)C[C@H](OC)[C@H](C)CN(C(=O)c1ccccc1F)[C@@H](C)CO2` the CPE inhibition was active: 23.7%. With `OC(COc1ccc(Cl)cc1Cl)Cn1ccnc1` (stereo not drawn) the CPE inhibition was active: 42%. For `COc1ccc(CN2CCCC(C(=O)N3CCCCC3)C2)cc1` (stereo not drawn), the CPE inhibition was inconclusive: 31.7%. In the case of `COC(=O)c1cc(=O)[nH]c(SCc2cccc(C)c2)n1`, the CPE inhibition was inconclusive: 67.8%. For `Cc1noc(C)c1S(=O)(=O)N(C)C[C@@H]1OCCCC[C@H](C)Oc2ccc(NC(=O)Nc3ccc4c(c3)OCO4)cc2C(=O)N([C@H](C)CO)C[C@@H]1C`, the CPE inhibition was inactive: -3.84%. With `CCOC(=O)N1CCC(NC(=O)c2cccc3c2C(=O)N(CCOC)C3)CC1` the CPE inhibition was active: 62.5%. For `C1CC1C(=NN=C(C1CC1)C1CC1)C1CC1`, the CPE inhibition was inconclusive: 31.2%. For `COc1ccc2c3c([nH]c2c1)[C@H](CO)N(Cc1ccccc1Cl)CC31CN(C(=O)C2CC2)C1`, the CPE inhibition was active: 53.5%. For `O=C(O)c1ccccc1CN1C[C@H]2O[C@H](CNS(=O)(=O)c3ccc(Cl)cc3)CC[C@H]21`, the CPE inhibition was inactive: 2.43%. In the case of `O=C(NCC[C@@H]1CC[C@@H](NC(=O)c2ccc3c(c2)OCO3)[C@@H](CO)O1)Nc1cc(F)ccc1F`, the CPE inhibition was inconclusive: 27%. With `COc1ccc(CCC(C)NCCc2ccc(Cl)cc2Cl)cc1` (stereo not drawn) the CPE inhibition was inactive: -3.15%. For `NC(=O)CC(NC(=O)c1ccccc1)c1ccc(NCCc2cccc(F)c2)c([N+](=O)[O-])c1` (stereo not drawn), the CPE inhibition was active: 39.1%. With `COc1ccc(-c2cnc3c(c2)C(=O)N([C@@H](C)CO)C[C@H](C)[C@@H](CN(C)Cc2ccc(C(=O)O)cc2)O3)cc1` the CPE inhibition was inconclusive: 21.6%. For `COc1ccc(CC(=O)NCc2nnc(SCc3ccc([N+](=O)[O-])cc3)n2C)cc1`, the CPE inhibition was inconclusive: 21.5%. In the case of `CC(C)(C)C(=O)Nc1sc2c(c1C(=O)Nc1ccccn1)CCCC2`, the CPE inhibition was inactive: -3.12%. For `COc1ccc(NC(=O)Nc2ccc3c(c2)C(=O)N([C@@H](C)CO)C[C@@H](C)[C@@H](CN(C)C(=O)CCC(F)(F)F)OCCCC[C@H](C)O3)cc1`, the CPE inhibition was inconclusive: 58.9%. For `CCN(CC(=O)Nc1c(F)cccc1F)C(=O)c1cc(-c2cccs2)nn1-c1ccccc1`, the CPE inhibition was inconclusive: 29.9%. With `COC(=O)[C@]12CCCCC=C1N(Cc1cccc3ccccc13)C(=O)[C@H](CC(=O)N1CCOCC1)C2` the CPE inhibition was active: 99.4%. For `CC(=O)N1CC2(C1)[C@@H](c1ccc(-c3ccc(F)cc3)cc1)[C@@H](CO)N2C(C)=O`, the CPE inhibition was active: 78.2%. With `O=C(COc1ccc(S(=O)(=O)N2CCOCC2)cc1)NCc1ccccc1` the CPE inhibition was inconclusive: 46%. With `C=C(C)C(=O)Oc1ccc(N=Nc2ccc(C)cc2)ccc1=O` the CPE inhibition was inactive: 0.186%. With `CCC(=O)Nc1ccc2c(c1)OC[C@H](C)N(CC1CCOCC1)C[C@@H](C)[C@@H](OC)CN(C)C2=O` the CPE inhibition was inactive: -4.88%. For `Cn1c(=O)c2c(SCC(=O)Nc3cccc(F)c3)nc(-c3ccco3)nc2n(C)c1=O`, the CPE inhibition was inconclusive: 45.4%. With `C[C@@H]1CN([C@@H](C)CO)C(=O)c2cc(NC(=O)Nc3cccc4ccccc34)ccc2O[C@@H](C)CCCCO[C@@H]1CN(C)C(=O)CCCN(C)C` the CPE inhibition was inactive: -11.1%. For `CN(Cc1ccccc1)C(=O)c1nc2ccccn2c1CN1CCCC1c1nccs1` (stereo not drawn), the CPE inhibition was inconclusive: 28.8%. With `O=C1c2ccccc2C(=O)N1C[C@@H]1CCCN(Cc2ccc(OCCO)cc2)C1` the CPE inhibition was inconclusive: 31.8%. With `Cc1cn([C@H]2C[C@H](O)[C@@H](CNCc3ccc(Oc4cc(-n5cccn5)ncn4)cc3)O2)c(=O)[nH]c1=O` the CPE inhibition was inconclusive: 27.5%. With `C[C@@H]1CN([C@H](C)CO)C(=O)c2cccc(NC(=O)Nc3ccc(C(F)(F)F)cc3)c2O[C@@H]1CN(C)C(=O)Nc1ccccc1` the CPE inhibition was active: 43.2%. With `C[C@@H]1CN([C@@H](C)CO)C(=O)Cc2cc(NS(=O)(=O)c3ccccc3)ccc2O[C@H]1CN(C)Cc1ccc(-c2ccccc2)cc1` the CPE inhibition was inconclusive: 28.7%. For `Cc1cc(Br)ccc1NC(=O)CNC(=O)CNc1cccc([N+](=O)[O-])c1`, the CPE inhibition was inconclusive: 77.8%. With `CN1c2ccc(-c3ccccc3F)cc2[C@H]2[C@H](CCN2C(=O)c2cccc(F)c2)[C@H]1CO` the CPE inhibition was inactive: 14.2%. In the case of `O=C(O)c1ccc(NS(=O)(=O)c2cccc3cccnc23)cc1`, the CPE inhibition was inactive: -1.94%. In the case of `On1nnc2cc(C(F)(F)F)ccc21`, the CPE inhibition was inactive: -2.75%. In the case of `CSc1ccc(Cn2nnc(C(=O)Nc3ccc(C)c(C)c3)c2N)cc1`, the CPE inhibition was inconclusive: 31.2%. For `c1cc2cc(CNc3nc(NCC4CC4)nc4ccsc34)ccc2o1`, the CPE inhibition was inconclusive: 38.4%. For `CCOc1ccc(N(CC(=O)NCC2CCCO2)C(=O)CCC(=O)Nc2nccs2)cc1` (stereo not drawn), the CPE inhibition was inactive: 1.96%.
